Experimental data as given in the supplement of paper PMC6411743.
± gives the standard deviation of the averaged measurements. The list shows a part of the results.

Chains of the proteins cited; added tags and fusions are not shown. Lines headed by an entry give the natural chain unless they say otherwise; changes in a name come on top.
UniProt Q8WUD4: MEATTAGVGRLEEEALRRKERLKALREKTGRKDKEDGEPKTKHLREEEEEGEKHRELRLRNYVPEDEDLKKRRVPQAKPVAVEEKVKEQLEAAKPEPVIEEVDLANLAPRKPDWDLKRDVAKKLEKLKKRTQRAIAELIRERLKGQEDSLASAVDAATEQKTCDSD
UniProt Q00059: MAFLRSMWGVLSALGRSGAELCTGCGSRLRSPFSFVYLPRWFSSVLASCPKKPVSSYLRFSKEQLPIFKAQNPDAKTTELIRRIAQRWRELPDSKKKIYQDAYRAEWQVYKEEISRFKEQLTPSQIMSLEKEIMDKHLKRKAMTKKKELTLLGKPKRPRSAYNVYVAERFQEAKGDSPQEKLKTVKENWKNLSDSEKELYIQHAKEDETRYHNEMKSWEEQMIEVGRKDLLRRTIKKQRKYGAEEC
UniProt P49815: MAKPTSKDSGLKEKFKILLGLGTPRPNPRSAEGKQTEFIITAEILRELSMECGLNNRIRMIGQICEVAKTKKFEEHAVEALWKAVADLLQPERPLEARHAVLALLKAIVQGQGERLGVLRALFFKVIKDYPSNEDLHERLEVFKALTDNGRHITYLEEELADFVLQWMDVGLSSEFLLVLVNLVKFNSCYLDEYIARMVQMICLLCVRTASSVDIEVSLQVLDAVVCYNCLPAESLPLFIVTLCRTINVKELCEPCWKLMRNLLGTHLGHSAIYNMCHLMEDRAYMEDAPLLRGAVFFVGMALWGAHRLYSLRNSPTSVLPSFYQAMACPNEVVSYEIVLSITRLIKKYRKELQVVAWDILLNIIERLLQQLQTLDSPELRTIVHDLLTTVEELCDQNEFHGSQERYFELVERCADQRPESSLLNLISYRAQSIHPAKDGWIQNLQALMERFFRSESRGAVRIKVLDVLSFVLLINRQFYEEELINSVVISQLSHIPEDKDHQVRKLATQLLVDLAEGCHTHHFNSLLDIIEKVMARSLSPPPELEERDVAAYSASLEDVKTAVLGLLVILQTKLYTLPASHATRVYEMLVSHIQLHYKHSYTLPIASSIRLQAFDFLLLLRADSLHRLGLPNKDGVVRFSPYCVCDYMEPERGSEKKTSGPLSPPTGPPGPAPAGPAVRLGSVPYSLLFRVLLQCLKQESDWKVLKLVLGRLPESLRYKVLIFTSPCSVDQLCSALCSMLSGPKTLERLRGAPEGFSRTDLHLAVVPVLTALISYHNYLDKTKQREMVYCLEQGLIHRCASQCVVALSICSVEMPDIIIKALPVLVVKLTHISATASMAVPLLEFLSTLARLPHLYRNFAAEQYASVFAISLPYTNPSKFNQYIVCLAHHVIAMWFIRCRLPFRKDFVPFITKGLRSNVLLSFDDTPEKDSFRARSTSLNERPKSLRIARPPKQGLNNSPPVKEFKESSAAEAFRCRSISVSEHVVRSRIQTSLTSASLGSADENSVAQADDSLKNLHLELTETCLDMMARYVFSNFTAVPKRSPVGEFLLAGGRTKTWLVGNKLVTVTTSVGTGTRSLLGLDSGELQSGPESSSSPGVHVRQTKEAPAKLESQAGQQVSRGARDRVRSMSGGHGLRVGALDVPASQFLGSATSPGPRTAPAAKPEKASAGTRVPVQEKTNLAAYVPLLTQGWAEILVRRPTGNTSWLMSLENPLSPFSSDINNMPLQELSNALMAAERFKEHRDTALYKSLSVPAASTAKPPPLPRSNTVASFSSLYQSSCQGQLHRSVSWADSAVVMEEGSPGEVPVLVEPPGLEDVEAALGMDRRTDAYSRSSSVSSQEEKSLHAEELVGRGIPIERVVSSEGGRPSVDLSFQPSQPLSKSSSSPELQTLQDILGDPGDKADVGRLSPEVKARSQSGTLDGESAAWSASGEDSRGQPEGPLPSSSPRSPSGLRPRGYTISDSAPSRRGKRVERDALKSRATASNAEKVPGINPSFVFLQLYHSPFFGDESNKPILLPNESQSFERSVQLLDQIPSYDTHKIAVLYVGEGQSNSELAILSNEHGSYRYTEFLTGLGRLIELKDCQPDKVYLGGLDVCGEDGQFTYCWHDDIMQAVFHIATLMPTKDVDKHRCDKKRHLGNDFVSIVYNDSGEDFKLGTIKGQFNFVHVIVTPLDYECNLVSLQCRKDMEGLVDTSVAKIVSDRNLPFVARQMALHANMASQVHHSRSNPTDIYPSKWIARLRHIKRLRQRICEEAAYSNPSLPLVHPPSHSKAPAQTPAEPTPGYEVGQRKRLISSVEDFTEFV
UniProt Q9BUL5: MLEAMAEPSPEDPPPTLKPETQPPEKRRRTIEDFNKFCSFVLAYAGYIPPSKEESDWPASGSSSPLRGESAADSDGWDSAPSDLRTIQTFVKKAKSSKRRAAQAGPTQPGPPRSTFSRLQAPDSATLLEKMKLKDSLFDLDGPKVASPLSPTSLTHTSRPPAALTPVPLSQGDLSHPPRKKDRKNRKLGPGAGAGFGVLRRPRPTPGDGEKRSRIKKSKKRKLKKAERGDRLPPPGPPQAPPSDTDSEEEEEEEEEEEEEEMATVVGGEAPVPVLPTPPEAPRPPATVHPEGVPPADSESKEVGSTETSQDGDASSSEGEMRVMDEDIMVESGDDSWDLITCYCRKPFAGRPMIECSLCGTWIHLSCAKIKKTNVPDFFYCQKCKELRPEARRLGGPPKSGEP
UniProt Q9UPP1: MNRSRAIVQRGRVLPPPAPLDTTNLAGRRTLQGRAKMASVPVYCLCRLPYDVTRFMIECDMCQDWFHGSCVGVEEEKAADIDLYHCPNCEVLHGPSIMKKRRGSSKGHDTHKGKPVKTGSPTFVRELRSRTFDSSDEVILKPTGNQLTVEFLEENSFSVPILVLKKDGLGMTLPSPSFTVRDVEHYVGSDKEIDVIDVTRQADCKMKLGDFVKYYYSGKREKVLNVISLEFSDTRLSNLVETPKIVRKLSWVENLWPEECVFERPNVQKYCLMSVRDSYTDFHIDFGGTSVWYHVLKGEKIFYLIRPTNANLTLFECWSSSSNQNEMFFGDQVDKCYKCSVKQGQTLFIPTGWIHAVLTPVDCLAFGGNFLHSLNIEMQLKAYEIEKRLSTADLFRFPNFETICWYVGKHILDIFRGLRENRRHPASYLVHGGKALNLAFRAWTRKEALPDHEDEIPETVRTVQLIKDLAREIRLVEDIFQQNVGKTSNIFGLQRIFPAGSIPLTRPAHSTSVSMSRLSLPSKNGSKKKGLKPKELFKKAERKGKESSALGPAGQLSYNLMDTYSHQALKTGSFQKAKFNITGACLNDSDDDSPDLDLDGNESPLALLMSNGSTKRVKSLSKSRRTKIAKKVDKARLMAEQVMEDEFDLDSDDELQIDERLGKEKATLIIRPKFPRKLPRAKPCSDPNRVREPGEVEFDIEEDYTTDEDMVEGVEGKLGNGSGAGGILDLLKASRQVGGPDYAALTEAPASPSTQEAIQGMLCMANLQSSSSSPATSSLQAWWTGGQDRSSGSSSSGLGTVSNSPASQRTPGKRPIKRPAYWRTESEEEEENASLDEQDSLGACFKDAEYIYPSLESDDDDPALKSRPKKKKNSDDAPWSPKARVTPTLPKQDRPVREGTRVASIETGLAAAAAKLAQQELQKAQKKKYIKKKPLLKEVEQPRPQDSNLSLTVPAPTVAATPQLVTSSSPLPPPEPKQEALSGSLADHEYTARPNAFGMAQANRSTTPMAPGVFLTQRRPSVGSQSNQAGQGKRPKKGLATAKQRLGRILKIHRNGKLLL
UniProt Q9Y282: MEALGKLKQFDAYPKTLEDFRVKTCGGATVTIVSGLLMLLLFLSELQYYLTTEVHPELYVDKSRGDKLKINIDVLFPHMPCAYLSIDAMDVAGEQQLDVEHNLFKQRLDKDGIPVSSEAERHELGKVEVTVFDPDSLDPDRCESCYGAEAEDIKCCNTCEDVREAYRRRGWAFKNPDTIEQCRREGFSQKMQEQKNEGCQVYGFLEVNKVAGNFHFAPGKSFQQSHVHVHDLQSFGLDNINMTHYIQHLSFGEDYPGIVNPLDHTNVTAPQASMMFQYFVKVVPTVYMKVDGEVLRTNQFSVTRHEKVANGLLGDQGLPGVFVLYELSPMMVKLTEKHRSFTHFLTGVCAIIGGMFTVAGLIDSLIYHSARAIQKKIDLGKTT
UniProt O75150, whole entry: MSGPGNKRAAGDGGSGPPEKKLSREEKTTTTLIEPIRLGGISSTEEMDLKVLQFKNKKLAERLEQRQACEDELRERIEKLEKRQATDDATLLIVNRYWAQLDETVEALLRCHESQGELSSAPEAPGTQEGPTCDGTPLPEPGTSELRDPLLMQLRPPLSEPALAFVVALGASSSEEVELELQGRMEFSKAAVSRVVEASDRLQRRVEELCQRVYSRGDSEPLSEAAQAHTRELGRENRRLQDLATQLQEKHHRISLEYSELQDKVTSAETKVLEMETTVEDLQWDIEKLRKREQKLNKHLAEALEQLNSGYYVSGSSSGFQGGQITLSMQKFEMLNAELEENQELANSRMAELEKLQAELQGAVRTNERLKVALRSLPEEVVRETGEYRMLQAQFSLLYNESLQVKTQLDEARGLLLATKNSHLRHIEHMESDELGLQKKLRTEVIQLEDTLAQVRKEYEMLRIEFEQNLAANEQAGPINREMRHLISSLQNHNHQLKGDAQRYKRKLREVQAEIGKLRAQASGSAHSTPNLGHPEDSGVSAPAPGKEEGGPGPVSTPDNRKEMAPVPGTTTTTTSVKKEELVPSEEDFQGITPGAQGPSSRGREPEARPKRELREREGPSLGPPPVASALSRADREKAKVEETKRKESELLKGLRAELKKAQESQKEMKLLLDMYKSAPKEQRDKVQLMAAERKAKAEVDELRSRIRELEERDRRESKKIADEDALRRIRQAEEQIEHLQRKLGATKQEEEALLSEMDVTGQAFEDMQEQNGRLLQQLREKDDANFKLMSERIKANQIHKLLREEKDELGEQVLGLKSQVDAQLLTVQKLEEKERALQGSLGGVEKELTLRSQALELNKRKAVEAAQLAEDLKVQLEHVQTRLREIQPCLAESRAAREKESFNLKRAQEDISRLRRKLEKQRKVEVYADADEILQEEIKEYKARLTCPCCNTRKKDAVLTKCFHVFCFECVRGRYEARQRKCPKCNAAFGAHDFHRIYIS
UniProt Q9BWH6: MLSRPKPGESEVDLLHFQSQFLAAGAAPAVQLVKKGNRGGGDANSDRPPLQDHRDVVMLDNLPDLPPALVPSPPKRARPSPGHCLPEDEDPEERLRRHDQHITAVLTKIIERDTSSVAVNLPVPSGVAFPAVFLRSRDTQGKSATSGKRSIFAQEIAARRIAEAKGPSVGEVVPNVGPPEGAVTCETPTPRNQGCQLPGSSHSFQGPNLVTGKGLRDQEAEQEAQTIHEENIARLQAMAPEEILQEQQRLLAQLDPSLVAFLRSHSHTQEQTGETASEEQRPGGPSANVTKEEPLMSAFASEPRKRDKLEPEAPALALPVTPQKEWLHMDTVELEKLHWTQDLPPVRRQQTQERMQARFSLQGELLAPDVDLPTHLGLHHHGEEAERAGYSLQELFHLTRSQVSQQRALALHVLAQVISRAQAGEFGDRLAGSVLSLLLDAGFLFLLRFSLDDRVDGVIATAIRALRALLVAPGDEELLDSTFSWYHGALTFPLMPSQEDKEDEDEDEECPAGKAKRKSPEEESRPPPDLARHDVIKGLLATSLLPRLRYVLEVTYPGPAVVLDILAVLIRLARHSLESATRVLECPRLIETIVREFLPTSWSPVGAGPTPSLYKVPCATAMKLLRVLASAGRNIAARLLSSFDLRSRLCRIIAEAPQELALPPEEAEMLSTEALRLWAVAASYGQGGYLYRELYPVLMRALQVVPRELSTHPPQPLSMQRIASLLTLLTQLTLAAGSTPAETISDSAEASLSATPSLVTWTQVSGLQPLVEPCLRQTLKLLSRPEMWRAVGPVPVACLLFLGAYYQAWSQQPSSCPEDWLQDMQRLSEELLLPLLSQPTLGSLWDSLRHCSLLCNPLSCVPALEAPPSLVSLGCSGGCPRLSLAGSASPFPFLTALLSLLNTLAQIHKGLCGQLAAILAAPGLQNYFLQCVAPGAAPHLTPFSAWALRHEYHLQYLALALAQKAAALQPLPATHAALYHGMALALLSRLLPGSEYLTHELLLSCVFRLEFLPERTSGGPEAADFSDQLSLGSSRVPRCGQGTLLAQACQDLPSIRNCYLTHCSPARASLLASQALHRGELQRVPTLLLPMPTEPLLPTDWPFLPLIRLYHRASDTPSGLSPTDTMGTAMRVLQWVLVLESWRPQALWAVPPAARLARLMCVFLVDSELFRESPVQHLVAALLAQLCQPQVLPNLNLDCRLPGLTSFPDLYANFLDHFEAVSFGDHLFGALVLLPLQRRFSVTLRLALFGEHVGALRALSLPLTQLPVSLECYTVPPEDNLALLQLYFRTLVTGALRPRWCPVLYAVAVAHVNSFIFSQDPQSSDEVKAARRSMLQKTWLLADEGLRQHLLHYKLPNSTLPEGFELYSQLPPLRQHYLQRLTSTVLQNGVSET

Compound: Nc1nc2c(ncn2[C@@H]2O[C@H](COP(=O)(O)OP(=O)(O)OP(=O)(O)O)[C@@H](O)[C@H]2O)c(=O)[nH]1 [guanosine triphosphate]
Test: NP40-soluble protein abundance relative to vehicle (solubility fold change) (ratio); higher = more soluble protein in presence of GTP
How it was run: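 Data come from three independent experiments in which Dounce-homogenised Jurkat crude lysate was treated at eight concentrations from 0.1 to 10 mM. Treatment ran 10 min at room temperature and then 3 min at 37 °C, after which 0.8% NP40 and benzonase were added for 60 min at 4 °C before ultracentrifugation. The supernatant underwent TMT labelling and LC-MS/MS, and vsn-normalised intensities were expressed as fold change against the detergent-processed vehicle in each replicate.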

Target | NP40-soluble protein abundance (concentration: 0.1mM) | NP40-soluble protein abundance (concentration: 0.5mM) | NP40-soluble protein abundance (concentration: 1mM) | NP40-soluble protein abundance (concentration: 2mM) | NP40-soluble protein abundance (concentration: 4mM) | NP40-soluble protein abundance (concentration: 6mM) | NP40-soluble protein abundance (concentration: 8mM) | NP40-soluble protein abundance (concentration: 10mM)
J3KR35 and related entries (UniProt Q8WUD4) | 0.83 ± 0.13 | 0.759 ± 0.063 | 1.02 ± 0.095 | 1.01 ± 0.02 | 0.897 ± 0.061 | 0.944 ± 0.066 | 0.8 ± 0.16 | 1.1 ± 0.17
H7BYN3 and related entries (UniProt Q00059) | 0.96 ± 0.06 | 0.936 ± 0.087 | 1.11 ± 0.061 | 1.13 ± 0.078 | 1.062 ± 0.0093 | 1.14 ± 0.099 | 1.14 ± 0.12 | 1.33 ± 0.17
H0YCG1 and related entries (UniProt Q13435) | 0.998 ± 0.046 | 1.05 ± 0.034 | 1.11 ± 0.046 | 1.08 ± 0.058 | 1.12 ± 0.087 | 1.08 ± 0.14 | 1.22 ± 0.12 | 1.18 ± 0.15
K7EQ37 and related entries (UniProt Q70J99) | 1.07 ± 0.037 | 1.05 ± 0.036 | 0.991 ± 0.027 | 1 ± 0.074 | 0.981 ± 0.069 | 0.943 ± 0.031 | 0.933 ± 0.051 | 0.907 ± 0.094
UniProt H3BQF6 | 1 ± 0.0047 | 0.993 ± 0.0027 | 1 ± 0.087 | 0.935 ± 0.045 | 0.943 ± 0.038 | 0.955 ± 0.057 | 0.958 ± 0.065 | 0.902 ± 0.085
K7ELL7 and related entries (UniProt P14314) | 0.9 ± 0.096 | 0.919 ± 0.11 | 0.942 ± 0.11 | 0.888 ± 0.12 | 0.891 ± 0.11 | 0.899 ± 0.095 | 0.92 ± 0.11 | 0.936 ± 0.12
H7BXY3 and related entries (UniProt Q7L2E3) | 0.909 ± 0.068 | 0.793 ± 0.053 | 0.83 ± 0.048 | 0.877 ± 0.037 | 0.948 ± 0.059 | 1.02 ± 0.075 | 1.011 ± 0.008 | 1.12 ± 0.048
G5E9W9 and related entries (UniProt Q9NUV9) | 0.991 ± 0.056 | 1 ± 0.044 | 0.975 ± 0.092 | 0.938 ± 0.082 | 0.932 ± 0.099 | 0.932 ± 0.1 | 0.903 ± 0.064 | 0.896 ± 0.073
H3BMQ0 and related entries (UniProt P49815) | 1 ± 0.019 | 1 ± 0.024 | 1.03 ± 0.053 | 1.01 ± 0.062 | 1.01 ± 0.057 | 0.983 ± 0.053 | 1.08 ± 0.066 | 1.02 ± 0.073
H0YBZ4 and related entries (UniProt Q15390) | 1.06 ± 0.062 | 1.06 ± 0.2 | 1.11 ± 0.043 | 1.09 ± 0.039 | 1.07 ± 0.056 | 1.07 ± 0.08 | 1.08 ± 0.015 | 1.11 ± 0.15
I3L4Q4 and related entries (UniProt Q9BUL5) | 0.948 ± 0.09 | 0.925 ± 0.13 | 0.936 ± 0.093 | 0.912 ± 0.14 | 0.917 ± 0.12 | 0.891 ± 0.12 | 0.915 ± 0.081 | 0.927 ± 0.12
K7EQW8 and related entries (UniProt P67936) | 0.803 ± 0.15 | 0.716 ± 0.089 | 1.39 ± 0.5 | 1.19 ± 0.29 | 1.27 ± 0.27 | 1.27 ± 0.21 | 1.15 ± 0.34 | 1.83 ± 0.49
H7C5G1 and related entries (UniProt Q2TAA2) | 1.03 ± 0.013 | 1.01 ± 0.046 | 0.973 ± 0.032 | 0.942 ± 0.027 | 0.92 ± 0.064 | 0.942 ± 0.048 | 0.888 ± 0.079 | 0.907 ± 0.099
H3BM14 and related entries (UniProt Q9Y5A7) | 1.02 ± 0.03 | 1.01 ± 0.03 | 0.986 ± 0.027 | 0.96 ± 0.032 | 0.971 ± 0.074 | 0.965 ± 0.057 | 0.95 ± 0.067 | 0.938 ± 0.063
H7C127 and related entries (UniProt Q9H0E9) | 1.01 ± 0.032 | 1.01 ± 0.052 | 1.06 ± 0.07 | 1.04 ± 0.049 | 1.05 ± 0.04 | 1.08 ± 0.049 | 1.08 ± 0.04 | 1.11 ± 0.035
J3KNQ1 and related entries (UniProt Q6P2D0) | 1.03 ± 0.077 | 0.991 ± 0.13 | 0.955 ± 0.022 | 1.01 ± 0.097 | 0.943 ± 0.057 | 0.943 ± 0.075 | 0.942 ± 0.082 | 1.03 ± 0.037
H0Y3N9 and related entries (UniProt Q9UPP1) | 0.967 ± 0.038 | 0.98 ± 0.056 | 1.03 ± 0.072 | 1.04 ± 0.08 | 1.06 ± 0.054 | 1.12 ± 0.095 | 1.14 ± 0.021 | 1.15 ± 0.072
H3BUF6 and related entries (UniProt Q8WWM7) | 0.945 ± 0.054 | 0.952 ± 0.075 | 0.974 ± 0.067 | 0.954 ± 0.099 | 0.963 ± 0.07 | 0.975 ± 0.077 | 1.02 ± 0.052 | 1.04 ± 0.066
H0Y5K5 and related entries (UniProt Q9Y282) | 1.04 ± 0.011 | 1.024 ± 0.0098 | 1.049 ± 0.01 | 0.963 ± 0.012 | 0.979 ± 0.039 | 0.981 ± 0.013 | 0.993 ± 0.029 | 0.903 ± 0.021
J3KPP0 and related entries (UniProt Q9Y6G3) | 1.07 ± 0.12 | 1.07 ± 0.13 | 1.24 ± 0.24 | 1.15 ± 0.11 | 1.23 ± 0.12 | 1.2 ± 0.16 | 1.17 ± 0.2 | 1.23 ± 0.28
I3L0L6 and related entries (UniProt Q9H6Y7) | 1.04 ± 0.035 | 0.892 ± 0.08 | 1.08 ± 0.07 | 0.986 ± 0.056 | 1.05 ± 0.051 | 0.97 ± 0.027 | 0.999 ± 0.079 | 0.94 ± 0.021
H3BP71 and related entries (UniProt O75150) | 0.987 ± 0.037 | 0.983 ± 0.051 | 0.992 ± 0.059 | 0.967 ± 0.066 | 0.983 ± 0.045 | 0.979 ± 0.052 | 1 ± 0.038 | 0.992 ± 0.051
H3BP20 and related entries (UniProt P06865) | 1.06 ± 0.082 | 1.05 ± 0.088 | 0.966 ± 0.036 | 0.96 ± 0.07 | 0.922 ± 0.051 | 0.932 ± 0.049 | 0.901 ± 0.027 | 0.862 ± 0.032
H3BRE8 and related entries (UniProt Q9BWH6) | 1.02 ± 0.038 | 1.02 ± 0.11 | 1.02 ± 0.074 | 1.01 ± 0.071 | 1.05 ± 0.032 | 1.04 ± 0.051 | 1.05 ± 0.083 | 1.05 ± 0.093
G8JL98 and related entries (UniProt Q13569) | 0.925 ± 0.055 | 1.06 ± 0.047 | 0.975 ± 0.17 | 0.956 ± 0.14 | 0.87 ± 0.16 | 0.878 ± 0.077 | 0.96 ± 0.16 | 0.99 ± 0.11
H3BVG2 and related entries (UniProt Q2M296) | 1.0106 ± 0.00013 | 0.9902 ± 0.0065 | 0.985 ± 0.023 | 1.01 ± 0.017 | 1.03 ± 0.012 | 1.04 ± 0.022 | 1.07 ± 0.066 | 1 ± 0.034

Two entries from above, as labelled records:
H3BP71 and related entries (UniProt O75150)
  NP40-soluble protein abundance (concentration: 0.1mM): 0.987 ± 0.037; NP40-soluble protein abundance (concentration: 0.5mM): 0.983 ± 0.051; NP40-soluble protein abundance (concentration: 1mM): 0.992 ± 0.059; NP40-soluble protein abundance (concentration: 2mM): 0.967 ± 0.066; NP40-soluble protein abundance (concentration: 4mM): 0.983 ± 0.045; NP40-soluble protein abundance (concentration: 6mM): 0.979 ± 0.052; NP40-soluble protein abundance (concentration: 8mM): 1 ± 0.038; NP40-soluble protein abundance (concentration: 10mM): 0.992 ± 0.051
H3BP20 and related entries (UniProt P06865)
  NP40-soluble protein abundance (concentration: 0.1mM): 1.06 ± 0.082; NP40-soluble protein abundance (concentration: 0.5mM): 1.05 ± 0.088; NP40-soluble protein abundance (concentration: 1mM): 0.966 ± 0.036; NP40-soluble protein abundance (concentration: 2mM): 0.96 ± 0.07; NP40-soluble protein abundance (concentration: 4mM): 0.922 ± 0.051; NP40-soluble protein abundance (concentration: 6mM): 0.932 ± 0.049; NP40-soluble protein abundance (concentration: 8mM): 0.901 ± 0.027; NP40-soluble protein abundance (concentration: 10mM): 0.862 ± 0.032
